In article PMC10776562:
No constants are given. Whether binding was seen depends on the method and setting. Binding seen in cells or lysates may run through a third protein. Some results given as binding are weak or reduced against the parent protein; the word gives no strength.

Target: T1, SH3 domain containing ring finger 2 (SH3RF2) (human (endogenous in A2780/DDP and SKOV3/DDP)) (UniProt Q8TEC5)
T1 sequence: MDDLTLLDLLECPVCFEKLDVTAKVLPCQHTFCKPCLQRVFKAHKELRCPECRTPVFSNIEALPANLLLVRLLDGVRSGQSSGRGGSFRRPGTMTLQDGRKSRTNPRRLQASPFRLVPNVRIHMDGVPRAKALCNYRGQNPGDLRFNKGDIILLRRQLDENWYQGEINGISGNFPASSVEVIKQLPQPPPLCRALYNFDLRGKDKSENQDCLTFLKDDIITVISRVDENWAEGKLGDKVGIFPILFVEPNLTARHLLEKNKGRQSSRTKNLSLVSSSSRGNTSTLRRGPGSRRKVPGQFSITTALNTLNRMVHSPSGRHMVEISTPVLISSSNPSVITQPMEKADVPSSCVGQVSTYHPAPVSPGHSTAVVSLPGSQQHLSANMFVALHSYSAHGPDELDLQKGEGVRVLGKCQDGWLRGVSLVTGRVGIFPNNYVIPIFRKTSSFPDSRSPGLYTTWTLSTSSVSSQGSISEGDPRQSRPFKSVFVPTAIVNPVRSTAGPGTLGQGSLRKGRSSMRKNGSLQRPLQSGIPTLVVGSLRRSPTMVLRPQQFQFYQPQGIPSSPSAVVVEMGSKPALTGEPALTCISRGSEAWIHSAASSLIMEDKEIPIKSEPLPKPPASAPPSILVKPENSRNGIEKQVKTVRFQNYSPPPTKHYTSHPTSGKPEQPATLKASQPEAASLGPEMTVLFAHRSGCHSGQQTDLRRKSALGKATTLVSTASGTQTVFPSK
Assay: co-IP; endogenous proteins; anti-SH3RF2 or anti-RBPMS immobilised on AminoLink plus coupling resin (Pierce Co-Immunoprecipitation Kit), total lysates of DDP-resistant A2780 and SKOV3 cells (also parental SKOV3) added; eluates blotted with anti-RBPMS and anti-SH3RF2

binding: binds
Substance: RNA binding protein, mRNA processing factor (RBPMS) (from UniProt Q93062 1-196)
